Test results published in US20260022160A1 (AFFYXELL THERAPEUTICS, published 2026).
Results are given in words; binding and its absence hold for the method and conditions named. Some binding calls cover weakened binding; strength is not graded here.

By UniProt entry, the sequences of proteins in these tests, tags left out. Where a name states a change or a piece, a line headed by the entry shows the natural chain unless it says otherwise.
UniProt P02768: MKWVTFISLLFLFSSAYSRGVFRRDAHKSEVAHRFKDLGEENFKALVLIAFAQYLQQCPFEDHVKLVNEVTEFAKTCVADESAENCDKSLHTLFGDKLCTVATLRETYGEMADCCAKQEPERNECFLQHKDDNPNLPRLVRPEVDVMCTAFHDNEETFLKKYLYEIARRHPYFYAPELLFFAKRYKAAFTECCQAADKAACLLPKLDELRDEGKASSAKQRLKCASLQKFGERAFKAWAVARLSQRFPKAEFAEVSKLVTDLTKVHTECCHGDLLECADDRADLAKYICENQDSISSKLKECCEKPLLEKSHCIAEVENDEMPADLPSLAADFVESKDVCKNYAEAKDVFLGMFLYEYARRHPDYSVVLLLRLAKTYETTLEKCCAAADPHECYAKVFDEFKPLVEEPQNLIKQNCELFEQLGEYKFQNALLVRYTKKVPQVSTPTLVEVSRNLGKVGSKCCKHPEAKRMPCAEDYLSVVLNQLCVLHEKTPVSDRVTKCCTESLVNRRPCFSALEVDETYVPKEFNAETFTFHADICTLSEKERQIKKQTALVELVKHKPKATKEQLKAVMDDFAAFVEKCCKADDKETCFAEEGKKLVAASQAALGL

Legend:
[1] = biological target: T1, human CD40L (human, UniProt P29965 113-261, limits assumed); test: competitive ELISA: hCD40L (1 nM) premixed with the binder and added to plate-coated rhCD40 Fc; bound hCD40L detected with biotinylated anti-hCD40L polyclonal antibody
T1 sequence (looked up): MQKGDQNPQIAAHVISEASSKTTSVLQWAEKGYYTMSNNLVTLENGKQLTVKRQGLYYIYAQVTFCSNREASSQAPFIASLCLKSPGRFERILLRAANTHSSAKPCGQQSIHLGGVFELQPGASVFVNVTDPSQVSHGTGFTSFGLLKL
Protocol: To evaluate the avidity of the different formats, a CD40L competitive ELISA was performed. Briefly, the plates were coated with rhCD40 Fc at 1 μg/ml and incubated overnight at 4° C. The plates were washed twice with 150 μl of washing buffer (PBS, Tween 20 0.1%) with a plate washer and saturated with Casein 5% (Sigma) in PBS for 90 minutes at room temperature (25±1° C.). […] The resulting solution was then mixed and added to the plates. The plates were washed 3 times as described previously. […] The plates were incubated for 90 minutes at room temperature (25±1° C.). The plates were then washed. PolyHRP-Streptavidin was then diluted in dilution buffer and added to the plates. The plates were incubated an additional 90 minutes at room temperature (25±1° C.). Plates were washed 3 times as described previously and the substrate (TMB, Pierce Thermo-Scientific) was added in the plate for 10 minutes. The reaction was stopped using an acidic solution and the plates were read at 450-630 nm and the resulting percent inhibition was calculated.

[2] = biological target: T1, human CD40L; test: CD40L competitive ELISA against plate-coated rhCD40 Fc
[3] = biological target: T1, human CD40L; test: ELISA on plate-coated hCD40L, anti-cystatin detection, without or with HSA
[4] = biological target: T1, human CD40L; test: hCD40L/HSA bridging ELISAs
[5] = biological target: T2, human serum albumin (human, UniProt P02768 25-609); test: bridging ELISA: binder captured on plate-coated hCD40L, HSA 10 uM, bound HSA detected with anti-HSA antibody
T2 construct: also called HSA
Protocol: After saturation with 5% casein/PBS buffer, the plates were washed and a dilution of Stefin A protein variant or controls was incubated with HSA at a final concentration of 10 μM for 90 minutes. Plates were then washed, and a […], anti-HSA (HRP-conjugated) (Abcam), was added for 90 minutes. After a last washing step, TMB was added for the development of the experiment and the plates were read at 450 nm. The EC50 was then calculated using the interpolated non-linear four-parameters standard curve (FIG. 12C).

[6] = biological target: T2, human serum albumin; test: hCD40L/HSA bridging ELISA: capture on hCD40L, HSA 10 uM, anti-HSA detection
[7] = biological target: T2, human serum albumin; test: hCD40L/HSA bridging ELISAs

Measured: binding

B1: clone-230 DT (trimer with a rigid linker) (designed binder)
chain: IPGGLSEAKPATPEIQEIVDKVKPQLEEKTGETYGKLEAVQYKTQVVHYYVHYNDQGTNYYIKVRAGDNKYMHLKVFKSLWGENLFAKWEDLVLTGYQVDKNKDDELTGFAEAAAKEAAAKEAAAKEAAAKEAAAKEAAAKMIPGGLSEAKPATPEIQEIVDKVKPQLEEKTGETYGKLEAVQYKTQVVHYYVHYNDQGTNYYIKVRAGDNKYMHLKVFKSLWGENLFAKWEDLVLTGYQVDKNKDDELTGFAEAAAKEAAAKEAAAKEAAAKEAAAKEAAAKMIPGGLSEAKPATPEIQEIVDKVKPQLEEKTGETYGKLEAVQYKTQVVHYYVHYNDQGTNYYIKVRAGDNKYMHLKVFKSLWGENLFAKWEDLVLTGYQVDKNKDDELTGF
binds: [1] | [2]

B2: clone-230 XT75 (trimer with a rigid linker and an HSA binding stefin A protein variant) (designed binder)
chain: IPGGLSEAKPATPEIQEIVDKVKPQLEEKTGETYGKLEAVQYKTQVVHYYVHYNDQGTNYYIKVRAGDNKYMHLKVFKSLWGENLFAKWEDLVLTGYQVDKNKDDELTGFAEAAAKEAAAKEAAAKEAAAKEAAAKEAAAKMIPGGLSEAKPATPEIQEIVDKVKPQLEEKTGETYGKLEAVQYKTQVVHYYVHYNDQGTNYYIKVRAGDNKYMHLKVFKSLWGENLFAKWEDLVLTGYQVDKNKDDELTGFAEAAAKEAAAKEAAAKEAAAKEAAAKEAAAKMIPGGLSEAKPATPEIQEIVDKVKPQLEEKTGETYGKLEAVQYKTQVVHYYVHYNDQGTNYYIKVRAGDNKYMHLKVFKSLWGENLFAKWEDLVLTGYQVDKNKDDELTGFAEAAAKEAAAKEAAAKEAAAKEAAAKEAAAKMIPRGLSEAKPATPEIQEIVDKVKPQLEEKTGETYGKLEAVQYKTQVLANFFQRRWPGSTNYYIKVRAGDNKYMHLKVFNGPWKFRNTDRGADRVLTGYQVDKNKDDELTGF
notes: also called AFX01-230 XT75
binds: [1] | [2] | [3] | [4]

B3: clone-230 DS (tetramer with a rigid linker) (designed binder)
chain: IPGGLSEAKPATPEIQEIVDKVKPQLEEKTGETYGKLEAVQYKTQVVHYYVHYNDQGTNYYIKVRAGDNKYMHLKVFKSLWGENLFAKWEDLVLTGYQVDKNKDDELTGFAEAAAKEAAAKEAAAKEAAAKEAAAKEAAAKMIPGGLSEAKPATPEIQEIVDKVKPQLEEKTGETYGKLEAVQYKTQVVHYYVHYNDQGTNYYIKVRAGDNKYMHLKVFKSLWGENLFAKWEDLVLTGYQVDKNKDDELTGFAEAAAKEAAAKEAAAKEAAAKEAAAKEAAAKMIPGGLSEAKPATPEIQEIVDKVKPQLEEKTGETYGKLEAVQYKTQVVHYYVHYNDQGTNYYIKVRAGDNKYMHLKVFKSLWGENLFAKWEDLVLTGYQVDKNKDDELTGFAEAAAKEAAAKEAAAKEAAAKEAAAKEAAAKMIPGGLSEAKPATPEIQEIVDKVKPQLEEKTGETYGKLEAVQYKTQVVHYYVHYNDQGTNYYIKVRAGDNKYMHLKVFKSLWGENLFAKWEDLVLTGYQVDKNKDDELTGF
binds: [1] | [2]

B4: clone-230 XT76 (tetramer with a rigid linker and an HSA binding stefin A protein variant) (designed binder)
chain: IPGGLSEAKPATPEIQEIVDKVKPQLEEKTGETYGKLEAVQYKTQVVHYYVHYNDQGTNYYIKVRAGDNKYMHLKVFKSLWGENLFAKWEDLVLTGYQVDKNKDDELTGFAEAAAKEAAAKEAAAKEAAAKEAAAKEAAAKMIPGGLSEAKPATPEIQEIVDKVKPQLEEKTGETYGKLEAVQYKTQVVHYYVHYNDQGTNYYIKVRAGDNKYMHLKVFKSLWGENLFAKWEDLVLTGYQVDKNKDDELTGFAEAAAKEAAAKEAAAKEAAAKEAAAKEAAAKMIPGGLSEAKPATPEIQEIVDKVKPQLEEKTGETYGKLEAVQYKTQVVHYYVHYNDQGTNYYIKVRAGDNKYMHLKVFKSLWGENLFAKWEDLVLTGYQVDKNKDDELTGFAEAAAKEAAAKEAAAKEAAAKEAAAKEAAAKMIPGGLSEAKPATPEIQEIVDKVKPQLEEKTGETYGKLEAVQYKTQVVHYYVHYNDQGTNYYIKVRAGDNKYMHLKVFKSLWGENLFAKWEDLVLTGYQVDKNKDDELTGFAEAAAKEAAAKEAAAKEAAAKEAAAKEAAAKMIPRGLSEAKPATPEIQEIVDKVKPQLEEKTGETYGKLEAVQYKTQVLANFFQRRWPGSTNYYIKVRAGDNKYMHLKVFNGPWKFRNTDRGADRVLTGYQVDKNKDDELTGF
binds: all assays above
